Test results from the supplement of paper PMC9744312.
Counter-ions that a name gives are not always drawn. The list shows a part of the results. This is a noisy data set.

test system: Peyronie's disease tunica albuginea primary fibroblasts; assay: cell viability (DRAQ5 nuclear stain) relative to TGF-beta1-only control; higher = more viable cells; settings: 10 µM; TGF-beta1 10 ng/mL; 72 h

| SMILES | cell viability [%] |
| --- | --- |
| C[C@H]1[C@@H](O)O[C@@H]2O[C@@]3(C)CC[C@H]4[C@H](C)CC[C@@H]1[C@@]24OO3 [Dihydroartemisinin (DHA)] | 80.7 |
| COc1ccc2cc(CCC(C)=O)ccc2c1 [Nabumetone] | 89.2 |
| Cc1ccc(S(=O)(=O)NC(=O)NN2CC3CCCC3C2)cc1 (configuration not stated) [Gliclazide] | 85.1 |
| CC1(C)S[C@@H]2[C@H](NC(=O)Cc3ccccc3)C(=O)N2[C@H]1C(=O)O.CCN(CC)CCOC(=O)c1ccc(N)cc1 [Penicillin G Procaine] | 83 |
| CC(C)OC(=O)CCC/C=C\C[C@@H]1[C@@H](/C=C/C(F)(F)COc2ccccc2)[C@H](O)C[C@@H]1O [Tafluprost] | 94.1 |
| CCn1cc(C(=O)O)c(=O)c2cnc(N3CCNCC3)nc21 [Pipemidic acid] | 89.5 |
| NCCS(=O)(=O)O [Taurine] | 88.6 |
| CCCCS(=O)(=O)N[C@@H](Cc1ccc(OCCCCC2CCNCC2)cc1)C(=O)O [Tirofiban Hydrochloride] | 96.2 |
| COc1nc(C)nc(Cl)c1NC1=NCCN1 [Moxonidine] | 84.8 |
| Cc1ccc(NC(=O)c2ccc(CN3CCN(C)CC3)cc2)cc1Nc1nc(-c2cccnc2)cs1 [Masitinib (AB1010)] | 82.6 |
| C=CC[C@@H]1/C=C(\C)C[C@H](C)C[C@H](OC)[C@H]2O[C@@](O)(C(=O)C(=O)N3CCCC[C@H]3C(=O)O[C@H](/C(C)=C/[C@@H]3CC[C@@H](O)[C@H](OC)C3)[C@H](C)[C@@H](O)CC1=O)[C@H](C)C[C@@H]2OC [Tacrolimus (FK506)] | 102 |
| O=C([O-])c1ccccc1O.[Na+] [Sodium salicylate] | 98.2 |
| COc1ccc2[nH]cc(CCNC(C)=O)c2c1 [Melatonin] | 66.4 |
| Cc1ccc(C(=O)c2cc(O)c(O)c([N+](=O)[O-])c2)cc1 [Tolcapone] | 106 |
| COc1cc(CNC(=O)CCCCC=CC(C)C)ccc1O [Capsaicin(Vanilloid)] | 98.1 |
| CCN(Cc1ccncc1)C(=O)C(CO)c1ccccc1 (configuration not stated) [Tropicamide] | 86.9 |
| CCN(CC)CC#CCOC(=O)C(O)(c1ccccc1)C1CCCCC1 (configuration not stated) [Oxybutynin chloride] | 85.9 |
| CCN(CC)CC#CCOC(=O)C(O)(c1ccccc1)C1CCCCC1 (configuration not stated) [Oxybutynin] | 93 |
| Cc1ncc([N+](=O)[O-])n1CCO [Metronidazole] | 82.3 |
| CN1C2CCCC1CC(NC(=O)c1nn(C)c3ccccc13)C2 (configuration not stated) [Granisetron] | 83.7 |
| CN1C2CCCC1CC(NC(=O)c1nn(C)c3ccccc13)C2 (configuration not stated) [Granisetron HCl] | 101 |

| SMILES | cell viability [%] |
| --- | --- |
| CC(C)N1CCN(c2ccc(OCC3COC(Cn4cncn4)(c4ccc(Cl)cc4Cl)O3)cc2)CC1 (configuration not stated) [Terconazole] | 84.6 |
| CCCc1cc(=O)[nH]c(=S)[nH]1 [Propylthiouracil] | 89.7 |
| Cc1onc(-c2ccccc2)c1-c1ccc(S(N)(=O)=O)cc1 [Valdecoxib] | 101 |
| CO/N=C(\C(=O)N[C@@H]1C(=O)N2C(C(=O)OCOC(=O)C(C)(C)C)=C(/C=C\c3scnc3C)CS[C@H]12)c1csc(N)n1 [Cefditoren Pivoxil] | 90.1 |
| CN(N=O)C(=O)NC1C(O)OC(CO)C(O)C1O (configuration not stated) [Streptozotocin (STZ)] | 80.9 |
| Oc1ncnc2[nH]ncc12 [Allopurinol] | 95.5 |
| C=C[C@]1(C)C[C@@H](OC(=O)CS[C@@H]2C[C@H]3CC[C@@H](C2)N3C)[C@]2(C)[C@H](C)CC[C@]3(CCC(=O)[C@H]32)[C@@H](C)[C@@H]1O [Retapamulin] | 82.7 |
| CCOC(=O)C1=C[C@@H](OC(CC)CC)[C@H](NC(C)=O)[C@@H](N)C1 [Oseltamivir Phosphate] | 92.8 |
| C[C@]12CCC(=O)C=C1CC[C@@H]1[C@@H]2[C@@H](O)C[C@@]2(C)[C@H]1CC[C@]2(O)C(=O)CO [Hydrocortisone] | 75 |
| Cn1nnc(-c2ccc(-c3ccc(N4C[C@H](COP(=O)(O)O)OC4=O)cc3F)cn2)n1 [Tedizolid Phosphate] | 97.5 |
| CN[C@@H]1[C@H](O[C@H]2[C@H](O[C@H]3[C@H](O)[C@@H](O)[C@H](N=C(N)N)[C@@H](O)[C@@H]3N=C(N)N)O[C@@H](C)[C@]2(O)C=O)O[C@@H](CO)[C@H](O)[C@H]1O [Streptomycin sulfate] | 85.7 |
| Nc1nc(Cl)nc2c1ncn2[C@H]1C[C@H](O)[C@@H](CO)O1 [Cladribine] | 69 |
| OCCOCCN1CCN(C2=Nc3ccccc3Sc3ccccc32)CC1 [Quetiapine Fumarate] | 89.2 |
| CC1(C)S[C@@H]2[C@H](NC(=O)[C@H](N)c3ccc(O)cc3)C(=O)N2[C@H]1C(=O)O [Amoxicillin Sodium] | 90.2 |
| CC1(C)S[C@@H]2[C@H](NC(=O)[C@H](N)c3ccc(O)cc3)C(=O)N2[C@H]1C(=O)O [Amoxicillin] | 86.9 |
| CC1(C)S[C@@H]2[C@H](NC(=O)[C@H](N)c3ccc(O)cc3)C(=O)N2[C@H]1C(=O)O [Amoxicillin trihydrate] | 87.5 |
| CCC(=O)O[C@@H](O[P@](=O)(CCCCc1ccccc1)CC(=O)N1C[C@H](C2CCCCC2)C[C@H]1C(=O)O)C(C)C [Fosinopril Sodium] | 84.6 |
| CCCCC(=O)O[C@H]1CC[C@H]2[C@@H]3CCc4cc(O)ccc4[C@H]3CC[C@]12C [Estradiol valerate] | 99.7 |
| O=C(OC[C@H]1O[C@@H](OC(=O)c2cc(O)c(O)c(OC(=O)c3cc(O)c(O)c(O)c3)c2)[C@H](OC(=O)c2cc(O)c(O)c(OC(=O)c3cc(O)c(O)c(O)c3)c2)[C@@H](OC(=O)c2cc(O)c(O)c(OC(=O)c3cc(O)c(O)c(O)c3)c2)[C@@H]1OC(=O)c1cc(O)c(O)c(OC(=O)c2cc(O)c(O)c(O)c2)c1)c1cc(O)c(O)c(OC(=O)c2cc(O)c(O)c(O)c2)c1 [Tannic acid] | 77.6 |
| N=C(N)c1ccc(OCCCCCOc2ccc(C(=N)N)cc2)cc1 [Pentamidine isethionate] | 83.4 |
| Fc1ccc(C(c2ccc(F)cc2)N2CCN(C/C=C/c3ccccc3)CC2)cc1 [Flunarizine 2HCl] | 92.3 |

Quoted at random: 2 entries already listed, in no set order.

| SMILES | cell viability [%] |
| --- | --- |
| CCCc1cc(=O)[nH]c(=S)[nH]1 [Propylthiouracil] | 89.7 |
| Fc1ccc(C(c2ccc(F)cc2)N2CCN(C/C=C/c3ccccc3)CC2)cc1 [Flunarizine 2HCl] | 92.3 |
